Data as given in PubChem BioAssay AID1224830 (NIAID, 2016).
This is one part, drawn at random, of about 18,000 deposited reagents. About 2,900 of them (16%) count as active. 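Calls are made per well; low scores hint the gene aids the LPS response, high scores that it dampens it.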 Unmarked entries are inactive. Repeated entries: four replicate wells of each siRNA pool.

- Assay: 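Genes whose knock-down alters the TNF-alpha reporter response to LPS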 (primary screen)
- System: human THP-1 monocytic leukaemia cells, TNF dual-luciferase reporter clone, PMA-differentiated to macrophage-like cells
- Reagents: siRNA pool against human genes, 50 nM
- Duration: LPS for 4 h, given about 3 days after siRNA transfection
- Challenge: bacterial LPS (TLR4 ligand), 10 ng/ml
- Read-out: 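Ratio of firefly to renilla light, scaled to the plate median and expressed as a robust z-score per replicate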
- Scale: TNF reporter robust z-score: higher = stronger TNF reporter response to LPS
- Active means: 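Each well counts as active if its z-score is over 2.8 or under -1.5; controls are left without a call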

target gene	TNF reporter robust z-score
CTTNBP2	-0.31
CTTNBP2	-0.9
CTTNBP2	0.58
CTTNBP2	-0.78
PPP1R12A	0.41
PPP1R12A	1.73
PPP1R12A	-0.9
PPP1R12A	1.34
LAMB4	1.15
LAMB4	1.49
LAMB4	1.64
LAMB4	2.33
GCM1	-0.59
GCM1	1.55
GCM1	0.42
GCM1	1.94
RPP38	0.79
RPP38	0.97
RPP38	2.02
RPP38	1.02
ATP6V1E2	1.17
ATP6V1E2	1.22
ATP6V1E2	0.05
ATP6V1E2	1.66
OR1E1	1.77
OR1E1	-1.31
OR1E1	-0.78
OR1E1	-0.4
NDUFAF4	0.36
NDUFAF4	-0.84
NDUFAF4	-0.48
NDUFAF4	-0.54

Records above whose gene name begins with G or g (4):
target gene	TNF reporter robust z-score
GCM1	-0.59
GCM1	1.55
GCM1	0.42
GCM1	1.94

Next reagents:
target gene	TNF reporter robust z-score
ACBD5	1.5
ACBD5	1.71
ACBD5	1.29
ACBD5	2.5
PSMD11	-1.97 (active)
PSMD11	-2.11 (active)
PSMD11	-1.95 (active)
PSMD11	-2.04 (active)
DNAAF8	0.9
DNAAF8	-0.09
DNAAF8	-0.6
DNAAF8	1.01
RNF31	-0.88
RNF31	-0.48
RNF31	0.43
RNF31	-0.32
